{
  "source": "paper PMC8511046",
  "target": "T1, vezatin (mouse (endogenous in mouse hippocampus)) (UniProt Q3ZK22)",
  "T1 sequence": "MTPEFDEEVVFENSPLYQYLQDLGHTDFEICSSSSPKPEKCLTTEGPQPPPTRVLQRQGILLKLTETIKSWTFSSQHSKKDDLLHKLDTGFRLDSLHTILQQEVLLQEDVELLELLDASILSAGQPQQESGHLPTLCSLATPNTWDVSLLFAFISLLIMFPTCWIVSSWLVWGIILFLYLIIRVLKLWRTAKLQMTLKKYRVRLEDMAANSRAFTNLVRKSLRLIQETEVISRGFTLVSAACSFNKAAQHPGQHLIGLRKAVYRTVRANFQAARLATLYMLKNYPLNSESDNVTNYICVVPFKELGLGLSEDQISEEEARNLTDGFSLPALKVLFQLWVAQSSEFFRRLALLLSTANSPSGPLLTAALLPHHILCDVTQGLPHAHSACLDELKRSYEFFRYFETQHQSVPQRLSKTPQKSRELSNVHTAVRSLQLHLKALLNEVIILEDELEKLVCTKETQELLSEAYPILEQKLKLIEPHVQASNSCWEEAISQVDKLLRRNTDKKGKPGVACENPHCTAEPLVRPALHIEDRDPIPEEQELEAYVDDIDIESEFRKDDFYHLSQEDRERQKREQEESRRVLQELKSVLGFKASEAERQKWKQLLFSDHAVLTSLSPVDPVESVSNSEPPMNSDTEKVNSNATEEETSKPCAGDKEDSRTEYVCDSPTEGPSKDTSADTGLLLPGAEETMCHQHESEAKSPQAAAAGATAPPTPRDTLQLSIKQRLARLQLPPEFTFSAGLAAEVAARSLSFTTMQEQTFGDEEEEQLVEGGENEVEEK",
  "experiment": "co-IP; whole protein extract of mouse brain (hippocampus) tissue, pre-cleared with IgG and Protein A + G agarose; antibody overnight at 4 °C, beads 3 h at 4 °C, five washes with lysis buffer; western blot; endogenous proteins",
  "note": "Results are given in words; binding and its absence hold for the method and conditions named. In cells and extracts the contact can be indirect.",
  "data": [
    {"substance": "protein phosphatase (PP) 2A (mouse (endogenous in mouse hippocampus)) (enzyme)", "values": [
      {"measurement": "binding", "value": "no binding"}
    ]},
    {"substance": "protein phosphatase (PP) 1 (mouse (endogenous in mouse hippocampus)) (enzyme)", "values": [
      {"measurement": "binding", "value": "no binding"}
    ]}
  ]
}
